Measured values taken from patent publication US4136163A, “P-Menthane carboxamides having a physiological cooling effect” (Wilkinson Sword Limited, priority 1971, dated 1979).

Assay: Taste, flavour or odour of product containing the compound
Assay type: in vivo, human
Conditions: Example 12, toothpick, 0.01 mg, tongue

For CCNC(=O)C1CC(C)CCC1C(C)C (stereo not shown) [H, --C2 H5, N-ethyl-p-menthane-3-carboxamide], the taste was “no detectable taste”.
